In patent US8263056B2, “Dyed-hair-binding peptides and peptide-based hair reagents for personal care” (E I du Pont de Nemours and Company, priority 2007, dated 2012):

Experiment: Minitress procedure for evaluation of peptides for dye enhancement (color retention after shampoo cycles)
Design: species or system human
Conditions: equivalent of 12 shampoo treatments, relative to dyed hair without peptide

In the case of “ssFAEAWSRAWPRAEVFFPSRGY (SSFAEAWSRAWPRAEVFFPSRGY; dye conjugate; Dyed-hair-bindg peptide) [Dye-24]”, the “Delta E difference” value (basic, pH 9.0, 2 mg/mL peptide) is reported as 3.74.

In the case of “ssNYNYNYNYQYSsr (SSNYNYNYNYQYSSR; dye conjugate; flanking ss/Ssr residues; Dyed-hair-bindg peptide) [Dye-1]”, the “Delta E difference” value (acidic, pH 3.87, 0.4 mg/mL peptide) is reported as 14, the “Delta E difference” value (acidic, pH 3.9, 0.4 mg/mL peptide) is reported as 8.75 and the “Delta E difference” value (basic, pH 8.9, 2 mg/mL peptide) is reported as 6.42. The “Delta E difference” value (basic, pH 9.0, 2 mg/mL peptide) was 6.8.

For “ssSFAYLVPDDGWLSsr (SSSFAYLVPDDGWLSSR; dye conjugate; flanking ss/Ssr residues; Dyed-hair-bindg peptide) [Dye-17]”, the “Delta E difference” value (basic, pH 8.75, 1 mg/mL peptide) was 2.83.

In the case of “ssYYYDYYQQDYSsr (SSYYYDYYQQDYSSR; dye conjugate; flanking ss/Ssr residues; Dyed-hair-bindg peptide) [Dye-26]”, the “Delta E difference” value (acidic, pH 4.2, 0.4 mg/mL peptide) is reported as 9.06, the “Delta E difference” value (basic, pH 8.7, 2 mg/mL peptide) is reported as 5.08 and the “Delta E difference” value (basic, pH 9.0, 1 mg/mL peptide) is reported as 4.6.
